# Results of single-concentration screens

The chains behind the UniProt entries cited, without tags or fusion partners. Residues count along the entry.
UniProt A4I591, 1-473: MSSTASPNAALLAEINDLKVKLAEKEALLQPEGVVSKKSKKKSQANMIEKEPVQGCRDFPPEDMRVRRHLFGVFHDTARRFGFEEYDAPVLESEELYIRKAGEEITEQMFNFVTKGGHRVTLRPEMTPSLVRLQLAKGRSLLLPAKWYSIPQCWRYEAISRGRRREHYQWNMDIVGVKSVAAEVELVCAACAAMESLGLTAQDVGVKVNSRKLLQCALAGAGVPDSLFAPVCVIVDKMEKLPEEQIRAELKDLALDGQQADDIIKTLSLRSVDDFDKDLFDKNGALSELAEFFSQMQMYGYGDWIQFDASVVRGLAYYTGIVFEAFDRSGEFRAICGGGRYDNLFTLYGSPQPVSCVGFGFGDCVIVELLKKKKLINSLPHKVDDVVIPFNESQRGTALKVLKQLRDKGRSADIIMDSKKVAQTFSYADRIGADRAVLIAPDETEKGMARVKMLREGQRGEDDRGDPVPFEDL
UniProt P9WNZ1, whole entry: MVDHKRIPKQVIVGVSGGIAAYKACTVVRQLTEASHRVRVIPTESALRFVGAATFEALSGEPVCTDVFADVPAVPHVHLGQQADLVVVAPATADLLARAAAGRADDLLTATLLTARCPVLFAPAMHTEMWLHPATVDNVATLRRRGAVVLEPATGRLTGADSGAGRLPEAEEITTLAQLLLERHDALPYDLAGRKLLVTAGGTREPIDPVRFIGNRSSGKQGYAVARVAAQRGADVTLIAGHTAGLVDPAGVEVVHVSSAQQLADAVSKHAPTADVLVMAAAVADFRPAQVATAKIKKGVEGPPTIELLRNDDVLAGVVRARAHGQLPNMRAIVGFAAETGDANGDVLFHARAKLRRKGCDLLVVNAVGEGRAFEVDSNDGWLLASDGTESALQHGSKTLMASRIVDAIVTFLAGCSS
UniProt Q8IDJ8, 1-583: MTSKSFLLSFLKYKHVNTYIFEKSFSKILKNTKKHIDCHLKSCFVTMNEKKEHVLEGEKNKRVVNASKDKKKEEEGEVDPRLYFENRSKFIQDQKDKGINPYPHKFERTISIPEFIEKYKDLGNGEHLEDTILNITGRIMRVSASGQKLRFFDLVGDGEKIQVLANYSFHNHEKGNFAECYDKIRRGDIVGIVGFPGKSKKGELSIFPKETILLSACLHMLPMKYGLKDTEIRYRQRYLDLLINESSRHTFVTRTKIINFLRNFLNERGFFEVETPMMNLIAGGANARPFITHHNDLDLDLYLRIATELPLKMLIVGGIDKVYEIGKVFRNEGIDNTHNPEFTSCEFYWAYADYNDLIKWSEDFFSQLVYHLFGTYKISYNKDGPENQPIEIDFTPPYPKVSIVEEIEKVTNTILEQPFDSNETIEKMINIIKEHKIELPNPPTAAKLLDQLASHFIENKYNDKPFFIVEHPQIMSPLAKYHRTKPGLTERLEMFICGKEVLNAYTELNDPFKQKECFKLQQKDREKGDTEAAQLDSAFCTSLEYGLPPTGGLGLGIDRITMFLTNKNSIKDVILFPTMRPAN
UniProt P9WFT3, whole entry: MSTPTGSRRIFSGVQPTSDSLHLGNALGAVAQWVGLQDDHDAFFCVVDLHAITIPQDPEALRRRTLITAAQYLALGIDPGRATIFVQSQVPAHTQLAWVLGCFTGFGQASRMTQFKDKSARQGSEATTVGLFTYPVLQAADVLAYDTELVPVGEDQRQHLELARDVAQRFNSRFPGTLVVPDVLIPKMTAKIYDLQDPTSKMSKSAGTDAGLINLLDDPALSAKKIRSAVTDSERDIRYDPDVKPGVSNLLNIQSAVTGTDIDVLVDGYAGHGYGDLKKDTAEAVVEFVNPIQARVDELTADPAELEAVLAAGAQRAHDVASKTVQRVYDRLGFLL

Data taken from ChEMBL document CHEMBL3988442, “University of Dundee, Small-Polar-MMV Screening Library” (2021).

LiHisRS: 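Histidine-tRNA ligase, Leishmania infantum (UniProt A4I591). Enzyme assay of histidyl-tRNA synthetase; the read-out is not stated. Concentration: 30 µM. The record gives no direction; compounds that gave an IC50 in retests scored well above the rest, so higher reads as stronger inhibition. The assay is labelled LdHisRS but filed under L. infantum. About 69,000 compounds were tested under these conditions; 0.6% (about 410) showed 50% or more at least once.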
CoaBC: 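Enzyme assay of CoaBC with a phosphate dye (Biomol Green) read at 650 nm. Target: Coenzyme A biosynthesis protein CoaBC, Mycobacterium tuberculosis (UniProt P9WNZ1). Tested at 30 µM. Direction is inferred from only a few compounds that gave an IC50; most scored high, so higher reads as stronger inhibition. Most strong results did not repeat in a second test. About 67,000 compounds were tested under these conditions; 0.06% (about 40) showed 50% or more at least once.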
PfKRS1: 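Enzyme assay of the cytosolic lysyl-tRNA synthetase in 384-well plates, read by luminescence. Target: Lysine-tRNA ligase, Plasmodium falciparum 3D7 (UniProt Q8IDJ8). Concentration: 30 µM. Direction is inferred from only a few compounds that gave an IC50; most scored high, so higher reads as stronger inhibition. Size under these conditions: about 69,000 compounds, about 49 of them at 50% or above in at least one test.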
MtTrpRS: 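Enzyme assay of tryptophanyl-tRNA synthetase; the read-out is not stated. Target: Tryptophan-tRNA ligase, Mycobacterium tuberculosis (UniProt P9WFT3). Compounds at 10 µM. Higher most likely means stronger inhibition; the record gives no direction and few retests gave an IC50. Size under these conditions: about 65,000 compounds, about 64 of them at 50% or above in at least one test.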

Each number is a percent effect as filed.
The controls that fix the scale are not given in the record; negative values are as filed.
This is an unselected part of the compounds tested.
Two or more numbers in one place are separate tests of the same structure; such repeats can differ widely.
A dash means the value is not listed here; it may have been measured.

structure	LiHisRS	CoaBC	PfKRS1	MtTrpRS
CC(C)c1cc(C(=O)N2CCOC3(CCCC3)C2)no1	19.51	1.145	5.261	1.336
CCSCc1ccnc(NC(=O)C2CCOC2)c1 (centres unmarked)	16.67	-2.355	-0.4981	-8.404
CCCc1noc(CN2CCCCC2Cn2cncn2)n1 (centres unmarked)	17.86	3.676	0.8391	-6.842
O=S(=O)(NCC1OCCc2cn(CC3CCOCC3)nc21)C1CC1 (centres unmarked)	7.895	-7.536	5.27	-5.23
Cc1ccc(C(=O)NCc2ccc(N3CCNC(=O)C3)c(F)c2)cc1	8.065	3.423	1.973	-3.367
CN(C)C(=O)C1CCC2(CCN(Cc3ccc4ccccc4n3)CC2)O1 (centres unmarked)	19.23	5.277	5.633	-6.686
O=C(NCc1cc(F)cc(Br)c1)C1(O)CCSCC1	6.25	4.018	-0.4316	-5.057
Cc1ccc(N2CCCC(c3[nH]ncc3Cc3ccccc3)C2)nn1 (centres unmarked)	28.33	8.351	0.249	30.48
CCNC(=O)c1cc(OC)c2cc(F)cc(C)c2n1	15.22	-2.795	-0.9283	-0.8039
O=C(Nc1ccc(F)cc1)N1CCC(CO)(Nc2ccccc2)CC1	24.14	3.579	3.224	-1.713
CCC1CCCCN1C(=O)c1ccnc(N(C)C)c1 (centres unmarked)	13.27	-2.611	-0.6909	-2.257
CC(C)CC(=O)N1Cc2ccccc2CC1C(=O)Nc1nncs1 (centres unmarked)	20	-3.38	9.473	6.702
O=C(NCCOc1ncc(Cl)cc1Cl)c1cccnc1	4.839	-1.711	-0.4964	1.175
Cc1ccc(N2CC[C@H]3OCC[C@@]3(C(=O)N3CCCO3)C2)nn1	17.81	6.719	3.094	3.562
CS(=O)(=O)N1CCO[C@@H]2CN(C(=O)c3ccnnc3)C[C@@H]2C1	15.09	0.9756	3.51	-
COCCn1ccc(=O)c(OCC(=O)Nc2ccc(OC)cc2)c1C	20.65	4.479	1.517	2.022
NC(=O)Nc1cccc(F)c1C(=O)NC1CCCC1	10.96	9.562	3.268	-3.725
CC(C)COC(=O)N1CCC2(CCNC2)C1 (centres unmarked)	11.65	8.142	6.906	-2.668
O=C1CN(Cc2cnc3c(-c4ccccc4)cnn3c2)CCCN1	5.263	-1.089	2.711	-7.153
CN(CCOCC1CC1)C(=O)Nc1ccc(C#N)c(Cl)c1	13.83	9.764	4.975	-0.6452
CC(C(N)=O)N1CCc2onc(-c3cccc(F)c3)c2C1 (centres unmarked)	26.88	-1.096	8.323	4.724
Cc1noc(C(C)N2CCN(CCn3ccccc3=O)CC2)n1 (centres unmarked)	9.948	2.174	3.674	-0.09633
COc1ccc(OC)c(CN2CCc3nc4ccsc4c(=O)n3CC2)c1	0	-4.089	3.354	-
O=C(NC1CC1)C1CNCCN1C(=O)COc1ccc2c(c1)OCO2 (centres unmarked)	16.44	3.636	0.9714	-0.5948
Cc1cc(C(=O)N(C)Cc2cnn(C)c2C)n(C)n1	16.05	1.531	1.988	3.565
Cc1ccc(-c2nnc(SCC(=O)O)n2-c2ccc(C)cc2)cc1	10.95	11.92	3.992	3.348
CCN(Cc1ccc2c(c1)OCCO2)C(=O)NCc1nncn1CC	14.04	2.112	1.956	-0.3313
CC(C(=O)NCc1ccc(-n2cncn2)nc1)S(C)(=O)=O (centres unmarked)	-1.653	4.104	-8.387	0.5696
OCC1(O)CCN(Cc2noc(-c3ccccc3)n2)CC1	8.392	-2.222	-2.026	-7.048
O=C(NCCc1cccs1)N1CCC[C@H]1CO	7.5	-	3.007	4.954
Fc1ccccc1Oc1nccnc1C1CCCN(C2CCOCC2)C1 (centres unmarked)	12.77	-6.748	1.831	-7.236
O=C(c1ccc(C2CCCN2)s1)N1CCC2(CCCO2)CC1 (centres unmarked)	2.083	0.2571	1.446	-5.093
c1ncn(CC2CN(Cc3noc(C4CC4)n3)CCO2)n1 (centres unmarked)	4.054	1.173	0.8015	-1.436
CC(C)c1noc(CCC(=O)NC2CCS(=O)(=O)C2)n1 (centres unmarked)	8.929	-0.4545	1.083	-1.947
Fc1ccc(OCc2noc(CN3CCc4cncnc4C3)n2)cc1	61.6	-0.266	6.197	-0.3145
O=C(O)c1cc(S(=O)(=O)Nc2cnn(C3CCOCC3)c2)ccc1F	17.98	0.6017	8.361	1.467
Cn1c(C(N)=O)cc2c1CN(C(=O)C1CCCN(C3CCCC3)C1)CC2 (centres unmarked)	10.26	12	1.835	-3.846
Cc1nn(Cc2ccc(C(=O)NCCCN3CCCC3=O)o2)c(C)c1Br	1.099	-2.651	-1.281	-0.9709
O=C(NC[C@H]1OC[C@@H](NCc2cccs2)[C@@H]1O)N1CCOCC1	9.459	0.6623	-2.144	5.235
Cc1cc(C2CCCN2CCC(=O)N2CCc3sccc3C2)no1 (centres unmarked)	27.19	15.98 and 28.06	0.0494	-4.802
CSCC(C)CNC(=O)N1CCSC(C)(C)C1 (centres unmarked)	3.509	2.419	7.011	-6.659
COc1ccc(CNC(Cn2cncn2)c2ccccc2)cc1C (centres unmarked)	8.219	8.636	-4.508	1.041
CC(Cn1cccn1)NC(=O)NCCN1CCc2ccccc2C1 (centres unmarked)	3.448	-32.33	-1.682	-4.862
CC(=O)NCC1CCN(Cc2nc(C3CC3)no2)CC1	14.58	0.7212	2.827	1.142
COc1ccc(CN(C)C2CCN(C(=O)C(C)C)CC2)c2cccnc12	15.83	-	-0.1242	-2.683
Cc1cnccc1CN(C)Cc1c[nH]nc1-c1ccc(F)cc1F	17.02	-0.2481	5.807	3.363
Cc1nc(C2CN(Cc3ccccc3C)CCO2)no1 (centres unmarked)	2.041	-5.741	0.8411	-5.266
COCCN1CCCC2(CCN(c3nccc4ccccc34)C2)C1=O (centres unmarked)	-4	-0.7426	0.5575	6.017
O=C(c1ccoc1)N1CCCC2(CCC(=O)N2Cc2ccncc2)C1 (centres unmarked)	22.81	4.017	3.136	1.48
Clc1cnccc1NCc1cccc(COC2CCOCC2)c1	8.621	4.497	5.448	3.216
NS(=O)(=O)CCCNC(=O)C1(c2cccc(Cl)c2)CC1	16.33	-18.83	1.931	2.852
COc1cccc(COCC(=O)NC2CCN(CC(N)=O)CC2)c1	10.96	5.992	4.85	-2.861
CCOCc1nnc2n1CCN(Cc1c(C)noc1C)CC2	-2	-1.97	-3.6	9.24
COc1c(C)cnc(CN2CCCC(c3noc(C4CC4)n3)C2)c1C (centres unmarked)	8.29	1.911	-1.163	3.988
Cn1cncc1-c1nnc([C@H]2CCN(CC3CCCCC3)C2)o1	24.32	6.483	1.858	-1.602
COc1ccc(CNC(Cc2cccs2)c2nc(C)c(C)s2)cc1OC (centres unmarked)	-7.368	-0.7299	1.866	-8.87
CS(=O)(=O)N1CCOCC2(CCN(C(=O)c3cccnc3)CC2)C1	3.81	10.11	1.178	4.852
COCCN(C)C(=O)Nc1ccc(C(=O)NCCC(=O)OC)cc1	12.5	8.46	2.655	-0.7498
Cn1ccc(C(=O)N2CCCC(Cc3cnc4ccccc4c3)C2)n1 (centres unmarked)	18.84	3.883	3.508	-
COCCOc1ccc(NC(=O)N2CCCC2c2ccncc2)cn1 (centres unmarked)	5.333	6.41	5.65	-1.173
CCN(CC)C(=O)Nc1ccc(N2CCSCC2)cc1C	11.69	1.266	4.973	-5.218
Cc1cc(-c2ccccc2)nc(C2CCCN2S(C)(=O)=O)n1 (centres unmarked)	5.634	-1.9	3.342	-0.06793
CN(CCOc1cccc(CNS(C)(=O)=O)c1)C1CCOCC1	6.849	-17.95	3.62	0.08818
C[C@@H]1C[C@@H]2CCN(C(=O)c3ccncn3)C[C@H]2O1	15.38	-3.008	1.756	4.979
Cn1ncc2c(NCCOCc3ccccc3)nc(C3CCCC3)nc21	14.52	12	3.173	-3.906

The first 4 entries again:

* CC(C)c1cc(C(=O)N2CCOC3(CCCC3)C2)no1 | LiHisRS: 19.51%; CoaBC: 1.145%; PfKRS1: 5.261%; MtTrpRS: 1.336%
* CCSCc1ccnc(NC(=O)C2CCOC2)c1 (centres unmarked) | LiHisRS: 16.67%; CoaBC: -2.355%; PfKRS1: -0.4981%; MtTrpRS: -8.404%
* CCCc1noc(CN2CCCCC2Cn2cncn2)n1 (centres unmarked) | LiHisRS: 17.86%; CoaBC: 3.676%; PfKRS1: 0.8391%; MtTrpRS: -6.842%
* O=S(=O)(NCC1OCCc2cn(CC3CCOCC3)nc21)C1CC1 (centres unmarked) | LiHisRS: 7.895%; CoaBC: -7.536%; PfKRS1: 5.27%; MtTrpRS: -5.23%